Here are results for one molecule from patent publication US20040097432A1, “Method of reducing cholesterol” (ACCESS BUSINESS GROUP INTERNATIONAL LLC., priority 2002, published 2004).

The subject of the experiment is HepG2 hepatocytes. The experiment in a line: Inhibition of cholesterol synthesis in HepG2 hepatocytes (secreted cholesterol and cholesteryl ester, AmplexRed). The class given is cell-based. Conditions: Homo sapiens, 0.014 mg/ml Atorvastatin, as contained in 0.2 mg/ml Lipitor tablet, FIG. 1, read-out: inhibitory effect (cholesterol synthesis/release). The method, then: HepG2 hepatocytes were used as a model to study the inhibition of cholesterol synthesis according to the procedures described in Dashti, N., et al., J. Lipid Res. 28:423-436 (1987) and Mohammadi, A., et al., Arterioscler. Thromb. Vasc. Biol., […]:783-793 (1998). […] Amounts of secreted cholesterol and cholesteryl ester are measured from acetate fed hepatocyte culture media using a fluorescent indicator AmplexRed.
The same cholesterol inhibition model used in Example I was used to determine the cholesterol synthesis inhibition of theaflavins, including theaflavin and gallate esters of theaflavin.

Regarding `CC(C)c1c(C(=O)Nc2ccccc2)c(-c2ccccc2)c(-c2ccc(F)cc2)n1CC[C@@H](O)C[C@@H](O)CC(=O)O` [Atorvastatin, reference compound], the inhibition at 14 µg/mL is around 30%.
